Measurements published in PMC5988664.
Results are given in words; binding and its absence hold for the method and conditions named. Binding seen in cells or lysates may run through a third protein. A yes stands for co-enrichment or nearness to the bait. Other partners may have been found.

Chains of the proteins cited; added tags and fusions are not shown. Residues count along the entry.
UniProt Q69ZU6, residues 39-1645: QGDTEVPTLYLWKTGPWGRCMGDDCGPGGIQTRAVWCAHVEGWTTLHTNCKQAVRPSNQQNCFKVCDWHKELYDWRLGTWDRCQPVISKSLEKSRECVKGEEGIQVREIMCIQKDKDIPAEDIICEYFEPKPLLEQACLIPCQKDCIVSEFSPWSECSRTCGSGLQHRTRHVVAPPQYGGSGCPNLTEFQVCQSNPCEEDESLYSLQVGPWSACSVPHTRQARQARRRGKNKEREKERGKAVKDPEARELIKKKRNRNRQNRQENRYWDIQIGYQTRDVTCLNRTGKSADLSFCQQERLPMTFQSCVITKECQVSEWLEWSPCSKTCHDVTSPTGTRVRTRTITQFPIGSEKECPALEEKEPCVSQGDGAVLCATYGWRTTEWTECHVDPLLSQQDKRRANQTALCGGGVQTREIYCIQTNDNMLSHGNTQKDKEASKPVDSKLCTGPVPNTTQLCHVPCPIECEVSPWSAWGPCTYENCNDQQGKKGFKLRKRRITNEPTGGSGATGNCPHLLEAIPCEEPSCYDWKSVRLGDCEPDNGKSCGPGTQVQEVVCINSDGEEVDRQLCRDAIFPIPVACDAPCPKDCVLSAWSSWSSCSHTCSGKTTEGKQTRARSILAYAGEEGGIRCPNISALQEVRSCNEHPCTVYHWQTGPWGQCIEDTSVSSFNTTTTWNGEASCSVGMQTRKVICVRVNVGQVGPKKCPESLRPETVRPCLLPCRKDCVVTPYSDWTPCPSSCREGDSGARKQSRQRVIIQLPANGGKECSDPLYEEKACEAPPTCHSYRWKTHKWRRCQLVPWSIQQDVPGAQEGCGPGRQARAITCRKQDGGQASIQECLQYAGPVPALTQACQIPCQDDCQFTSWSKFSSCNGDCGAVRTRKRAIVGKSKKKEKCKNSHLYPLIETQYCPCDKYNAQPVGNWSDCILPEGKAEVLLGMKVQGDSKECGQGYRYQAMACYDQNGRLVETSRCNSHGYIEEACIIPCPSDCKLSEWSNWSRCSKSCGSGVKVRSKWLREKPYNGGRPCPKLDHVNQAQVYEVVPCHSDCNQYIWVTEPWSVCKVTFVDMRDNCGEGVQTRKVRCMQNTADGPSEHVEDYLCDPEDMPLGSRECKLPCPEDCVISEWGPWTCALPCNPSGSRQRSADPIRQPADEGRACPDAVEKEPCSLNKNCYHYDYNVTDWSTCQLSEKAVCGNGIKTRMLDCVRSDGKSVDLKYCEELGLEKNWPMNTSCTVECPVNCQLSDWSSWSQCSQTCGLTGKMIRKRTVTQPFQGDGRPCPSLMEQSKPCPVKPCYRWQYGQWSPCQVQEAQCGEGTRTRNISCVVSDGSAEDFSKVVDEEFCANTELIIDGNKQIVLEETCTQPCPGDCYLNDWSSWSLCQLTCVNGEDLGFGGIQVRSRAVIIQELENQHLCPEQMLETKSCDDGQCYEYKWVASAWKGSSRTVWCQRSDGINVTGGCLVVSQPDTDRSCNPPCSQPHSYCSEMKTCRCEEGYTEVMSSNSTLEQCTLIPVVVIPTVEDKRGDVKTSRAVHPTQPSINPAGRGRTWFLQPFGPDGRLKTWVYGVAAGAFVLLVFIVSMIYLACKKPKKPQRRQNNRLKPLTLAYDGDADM
UniProt Q9R0Q3, residues 21-201: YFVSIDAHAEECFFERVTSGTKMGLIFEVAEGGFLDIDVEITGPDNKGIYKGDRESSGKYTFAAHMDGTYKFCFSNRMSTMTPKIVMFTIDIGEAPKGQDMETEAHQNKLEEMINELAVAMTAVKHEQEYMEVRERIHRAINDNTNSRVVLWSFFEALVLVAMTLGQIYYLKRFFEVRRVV
UniProt P35441, residues 19-1170: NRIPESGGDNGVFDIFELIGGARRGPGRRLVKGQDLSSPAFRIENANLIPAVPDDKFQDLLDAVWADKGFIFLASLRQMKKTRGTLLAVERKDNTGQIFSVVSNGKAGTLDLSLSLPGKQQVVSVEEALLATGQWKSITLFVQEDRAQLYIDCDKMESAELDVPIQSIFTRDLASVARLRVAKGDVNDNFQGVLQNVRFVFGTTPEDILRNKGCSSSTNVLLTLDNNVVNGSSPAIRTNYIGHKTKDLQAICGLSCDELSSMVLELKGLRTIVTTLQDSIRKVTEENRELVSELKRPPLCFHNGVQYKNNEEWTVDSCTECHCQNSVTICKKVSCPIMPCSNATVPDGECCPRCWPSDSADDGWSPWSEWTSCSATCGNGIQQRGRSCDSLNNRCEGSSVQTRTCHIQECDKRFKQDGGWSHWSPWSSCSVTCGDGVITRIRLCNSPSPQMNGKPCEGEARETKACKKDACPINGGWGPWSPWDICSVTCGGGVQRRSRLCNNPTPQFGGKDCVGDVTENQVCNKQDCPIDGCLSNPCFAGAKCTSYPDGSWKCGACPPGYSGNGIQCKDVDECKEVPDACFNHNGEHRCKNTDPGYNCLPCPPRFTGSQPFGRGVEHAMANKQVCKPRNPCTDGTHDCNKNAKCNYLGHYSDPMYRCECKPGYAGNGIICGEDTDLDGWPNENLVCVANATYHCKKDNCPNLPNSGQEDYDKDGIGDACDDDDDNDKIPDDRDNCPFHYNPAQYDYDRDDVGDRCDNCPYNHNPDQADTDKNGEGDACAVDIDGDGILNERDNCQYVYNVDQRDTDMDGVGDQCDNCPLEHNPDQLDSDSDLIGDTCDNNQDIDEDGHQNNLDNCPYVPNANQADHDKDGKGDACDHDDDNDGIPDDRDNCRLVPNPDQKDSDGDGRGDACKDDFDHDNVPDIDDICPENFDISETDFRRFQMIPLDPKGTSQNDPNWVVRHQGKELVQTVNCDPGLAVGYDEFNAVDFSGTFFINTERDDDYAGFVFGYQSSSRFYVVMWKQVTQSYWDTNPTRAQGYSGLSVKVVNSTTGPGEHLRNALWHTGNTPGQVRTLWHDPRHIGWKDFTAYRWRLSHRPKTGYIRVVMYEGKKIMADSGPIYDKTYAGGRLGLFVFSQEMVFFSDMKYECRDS
UniProt P09103, residues 20-509: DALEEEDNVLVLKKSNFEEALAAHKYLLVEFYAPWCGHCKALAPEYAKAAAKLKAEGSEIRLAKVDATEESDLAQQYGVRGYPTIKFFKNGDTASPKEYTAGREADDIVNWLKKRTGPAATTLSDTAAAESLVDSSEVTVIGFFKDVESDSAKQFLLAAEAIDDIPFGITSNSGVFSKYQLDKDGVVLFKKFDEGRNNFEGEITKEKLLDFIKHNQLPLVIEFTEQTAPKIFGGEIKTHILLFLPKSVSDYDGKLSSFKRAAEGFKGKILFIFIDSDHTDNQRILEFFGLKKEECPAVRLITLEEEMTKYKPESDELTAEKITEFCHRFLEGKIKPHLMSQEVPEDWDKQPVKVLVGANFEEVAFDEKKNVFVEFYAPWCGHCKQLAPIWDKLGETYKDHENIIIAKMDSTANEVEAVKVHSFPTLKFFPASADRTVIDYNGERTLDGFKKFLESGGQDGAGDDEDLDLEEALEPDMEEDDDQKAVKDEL
UniProt P13595, residues 20-1115: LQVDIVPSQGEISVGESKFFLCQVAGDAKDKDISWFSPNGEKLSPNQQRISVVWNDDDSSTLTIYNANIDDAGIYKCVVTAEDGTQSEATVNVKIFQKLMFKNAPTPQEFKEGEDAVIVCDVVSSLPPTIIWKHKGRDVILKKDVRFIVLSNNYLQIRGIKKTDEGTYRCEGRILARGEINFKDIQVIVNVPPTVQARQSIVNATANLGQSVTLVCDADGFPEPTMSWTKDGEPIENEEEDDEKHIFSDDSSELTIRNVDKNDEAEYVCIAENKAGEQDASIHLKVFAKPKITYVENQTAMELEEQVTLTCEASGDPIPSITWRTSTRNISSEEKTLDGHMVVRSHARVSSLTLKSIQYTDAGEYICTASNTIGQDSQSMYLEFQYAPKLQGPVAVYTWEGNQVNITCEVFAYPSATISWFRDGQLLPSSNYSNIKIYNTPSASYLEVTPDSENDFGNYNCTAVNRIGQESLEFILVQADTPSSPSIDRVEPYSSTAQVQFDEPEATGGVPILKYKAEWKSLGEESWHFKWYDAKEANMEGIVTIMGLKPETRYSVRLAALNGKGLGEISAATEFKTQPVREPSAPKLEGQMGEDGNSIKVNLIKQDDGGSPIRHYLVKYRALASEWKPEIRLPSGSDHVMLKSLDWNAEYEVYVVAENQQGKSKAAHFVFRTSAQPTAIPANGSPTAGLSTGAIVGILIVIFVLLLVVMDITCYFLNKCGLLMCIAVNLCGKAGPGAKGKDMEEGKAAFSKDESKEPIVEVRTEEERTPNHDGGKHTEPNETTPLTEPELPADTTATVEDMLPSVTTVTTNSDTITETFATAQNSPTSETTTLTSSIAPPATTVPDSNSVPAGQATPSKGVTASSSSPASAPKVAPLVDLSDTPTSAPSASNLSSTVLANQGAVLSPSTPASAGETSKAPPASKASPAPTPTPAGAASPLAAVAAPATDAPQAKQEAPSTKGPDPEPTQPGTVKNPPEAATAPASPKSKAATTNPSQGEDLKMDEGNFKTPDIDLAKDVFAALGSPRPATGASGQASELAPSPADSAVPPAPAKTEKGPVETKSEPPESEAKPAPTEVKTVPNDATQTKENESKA
UniProt Q9Z127: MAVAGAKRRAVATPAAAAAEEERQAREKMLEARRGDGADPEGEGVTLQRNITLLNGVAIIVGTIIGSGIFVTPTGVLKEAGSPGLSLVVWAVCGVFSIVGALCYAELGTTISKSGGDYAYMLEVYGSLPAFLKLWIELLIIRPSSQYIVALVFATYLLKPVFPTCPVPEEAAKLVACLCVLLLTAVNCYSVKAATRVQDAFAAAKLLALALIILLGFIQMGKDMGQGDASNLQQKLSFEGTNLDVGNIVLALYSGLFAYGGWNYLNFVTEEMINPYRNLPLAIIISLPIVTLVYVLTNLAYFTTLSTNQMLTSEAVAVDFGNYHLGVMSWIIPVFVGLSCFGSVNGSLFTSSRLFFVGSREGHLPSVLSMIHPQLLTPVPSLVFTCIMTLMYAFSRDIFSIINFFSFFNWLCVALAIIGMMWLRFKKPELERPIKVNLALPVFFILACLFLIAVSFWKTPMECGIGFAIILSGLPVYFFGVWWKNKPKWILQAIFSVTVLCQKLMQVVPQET
UniProt P10852: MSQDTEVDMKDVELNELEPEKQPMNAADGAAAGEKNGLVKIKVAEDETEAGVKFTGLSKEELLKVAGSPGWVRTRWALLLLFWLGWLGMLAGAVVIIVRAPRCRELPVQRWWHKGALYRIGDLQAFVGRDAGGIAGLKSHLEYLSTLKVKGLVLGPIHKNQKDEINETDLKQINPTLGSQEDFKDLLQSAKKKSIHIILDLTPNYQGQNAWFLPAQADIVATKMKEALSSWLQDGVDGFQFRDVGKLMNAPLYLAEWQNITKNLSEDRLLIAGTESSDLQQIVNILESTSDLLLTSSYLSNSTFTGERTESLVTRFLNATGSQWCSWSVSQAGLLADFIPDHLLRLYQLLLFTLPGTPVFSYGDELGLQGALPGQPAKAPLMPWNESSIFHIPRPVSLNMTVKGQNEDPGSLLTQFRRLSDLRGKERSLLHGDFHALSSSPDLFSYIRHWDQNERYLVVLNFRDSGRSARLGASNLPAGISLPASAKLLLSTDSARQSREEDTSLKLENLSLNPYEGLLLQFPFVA
UniProt P14211, residues 18-416: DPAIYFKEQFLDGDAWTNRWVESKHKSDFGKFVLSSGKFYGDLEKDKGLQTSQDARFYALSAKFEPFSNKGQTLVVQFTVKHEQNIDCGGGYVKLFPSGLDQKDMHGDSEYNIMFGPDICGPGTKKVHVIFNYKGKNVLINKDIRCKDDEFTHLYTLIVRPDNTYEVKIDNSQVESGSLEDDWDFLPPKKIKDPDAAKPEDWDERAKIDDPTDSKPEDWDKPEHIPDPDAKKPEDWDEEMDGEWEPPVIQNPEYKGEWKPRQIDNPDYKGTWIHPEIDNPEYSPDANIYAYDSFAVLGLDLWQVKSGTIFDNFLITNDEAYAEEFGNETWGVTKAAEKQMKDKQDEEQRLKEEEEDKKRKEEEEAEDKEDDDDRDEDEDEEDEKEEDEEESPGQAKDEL
UniProt Q07079, residues 20-271: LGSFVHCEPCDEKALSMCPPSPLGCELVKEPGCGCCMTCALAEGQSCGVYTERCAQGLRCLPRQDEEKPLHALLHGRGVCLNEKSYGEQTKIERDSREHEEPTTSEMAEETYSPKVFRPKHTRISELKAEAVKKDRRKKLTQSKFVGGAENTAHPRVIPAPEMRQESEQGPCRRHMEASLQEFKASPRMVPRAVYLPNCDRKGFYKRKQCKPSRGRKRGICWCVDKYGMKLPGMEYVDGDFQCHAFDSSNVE
UniProt Q9D771: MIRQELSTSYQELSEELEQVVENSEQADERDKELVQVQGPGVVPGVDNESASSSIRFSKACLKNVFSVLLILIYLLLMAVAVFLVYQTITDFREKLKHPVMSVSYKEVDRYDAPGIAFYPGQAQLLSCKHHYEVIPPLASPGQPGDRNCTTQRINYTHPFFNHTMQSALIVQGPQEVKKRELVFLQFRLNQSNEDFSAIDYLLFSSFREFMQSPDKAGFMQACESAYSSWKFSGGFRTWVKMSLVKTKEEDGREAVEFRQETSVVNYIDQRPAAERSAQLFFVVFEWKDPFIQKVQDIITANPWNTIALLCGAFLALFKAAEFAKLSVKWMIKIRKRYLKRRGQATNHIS

Biological target: prion protein (PrP) (mouse (endogenous in NMuMG, C2C12, N2a and CAD5)) (UniProt P04925)
Experiment: affinity purification with mass spectrometry

thrombospondin type-1 domain containing protein 7 A (Thsd7a) (from UniProt Q69ZU6 39-1645)
binding: binds

transmembrane emp24 domain-containing protein 2 (Tmed2) (from UniProt Q9R0Q3 21-201)
binding: binds

Thbs1 (from UniProt P35441 19-1170)
binding: binds

protein disulfide isomerase (P4hb) (from UniProt P09103 20-509)
binding: binds

neural cell adhesion molecule 1 (Ncam1) (from UniProt P13595 20-1115)
binding: binds

galectin-1 (Lgals1) (from UniProt P16045 1-135)
binding: binds

large neutral amino acid transporter small subunit 1 (Slc7a5) (from UniProt Q9Z127 1-512)
binding: binds

4F2 cell-surface antigen heavy chain (Slc3a2) (from UniProt P10852 1-526)
binding: binds

calreticulin (Calr) (from UniProt P14211 18-416)
binding: binds

insulin-like growth factor-binding protein 5 (Igfbp5) (from UniProt Q07079 20-271)
binding: binds

Tmem206 (from UniProt Q9D771 1-350)
binding: binds

B1: Cd109 (protein, UniProt Q8R422 22-1419)
chain: APGSRFLVTAPGIIRPGANVTIGVDLLENSPPQVLVKAQVFKIASNKSRSILEAEGVFHRGHFKTLVLPALPLSSADKIYELHINGQSENEIVFSNRTRLTFESKSISVLIQTDKAFYKPKQEVKFRVLTLCSDLKPYRTSVDIFIKDPKSNVIQQWFSQKGDLGVVSKTFQLSSNPIFGDWSIQVQVNDQQYYQSFQVLEYVLPKFEVTVQTPLYCSLKSKQLNGSVIAKYTYGKPVKGSLSLTFLPLSFWGKKKNITKSFEINGFANFSFDNYEMKKVMNLKPLTDVSEGSYENVDPSFPGPAEIIATVTESLTGISRMASTNVFFKQHDYIIEIFDYTTVLKPSLNFTATVKVSRSDGNQLTPEEIENDLVTVVTQRKNNHPESQRDQEMDYIQTVNYTIPQNGIIKIEFPVMSISGELQLKAYFLDGTSSVTVHSMFTSPSKTYIQLKTRDEYIKVGSPFDLMVSGNRQFKDLSYMVISKGQLVAAGKQSSRTFSLTPEASWAPKACIIAYYIAEDGEIINDILKIPVQLVFENKVKLFWSKPTVKPSDKVSLRISATQSDSLVGIVAVDKSVTLMENSNSITMETMVHELELYNTEYYLGMFMNSFAVFQECGLWVLTDATLIRDSIDEVYDTEEYSERFAEENEANLVDFEDASSVNNVHVRKNFPETWIWLDAYMGSKIYEEFEVTVPDSITSWVASAFVISEDLGFGLTTVPAELQAFQPFFLFLNLPYSVIRGEEFALEVSIVNYLKDTIKVVILIEESDSFDILMTSNDTNGTIYRKTVQVPRDNGVTLVFPIKPTHLGEIPITVTAASPTASDAVTQTIVVKPEGIEKSYSKSVLLDLTDSNVESKQQSMRFSFPPDTVIGSERVQITAIGDILGSSINGLSSLIRMPYGCGEQNMIYFAPNIYILDYLTKQKQLTVNLKEKALSYMRQGYQRELLYQREDGSFSAFGDIDSSGSTWLSAFVLRCFLEADYYIDIDQDVLHRTYTWLNAHKKFNGEFWEPGRVIHSELQGGTKSPVTLTAYIVTSVLGYKKYQPNIDVQDSIKFLEFEFSRGISDNYTLAIISYALSTVGSPKAEEALNLLMQRSEKEGDTQFWLSSGPALSGSWQPRSVDIEIAAYALLAHTLHHVSEGIPVMRWLIQQRNSLGGFVSTQDTVVALKALSEFSALVHKENTDIQLTVTGPGIPRSIHFRIDSQNLFLLHQEELHALDPITVNVSAHGSGFAICQLNVDYNVKGSGSSKRRRSTENQEVFDLDVIVNNEDDISHLNLNVCTSHLGSERTGMVLMEVNLLSGFSASSDSIPLSETLKKVEYDNGKLNLYLDSVNESQFCVNIPTVRDYKVSNIRDGSVSVMDYYEPRRQAVRSYNTQVKLSSCYLSPDTNCKSHTDGA
binding: binds

B2: basigin (Bsg) (protein, UniProt P18572 22-389)
chain: AAGFLKAPLSQERWAGGSVVLHCEAVGSPIPEIQWWFEGNAPNDSCSQLWDGARLDRVHIHAAYRQHAASSLSVDGLTAEDTGTYECRASSDPDRNHLTRPPRVKWVRAQASVVVLEPGTIQTSVQEVNSKTQLTCSLNSSGVDIVGHRWMRGGKVLQEDTLPDLHTKYIVDADDRSGEYSCIFLPEPVGRSEINVEGPPRIKVGKKSEHSSEGELAKLVCKSDASYPPITDWFWFKTSDTGEEEAITNSTEANGKYVVVSTPEKSQLTISNLDVNVDPGTYVCNATNAQGTTRETISLRVRSRMAALWPFLGIVAEVLVLVTIIFIYEKRRKPDQTLDEDDPGAAPLKGSGTHMNDKDKNVRQRNAT
binding: binds

B3: Cd47 (protein, UniProt Q61735 19-303)
chain: QLLFSNVNSIEFTSCNETVVIPCIVRNVEAQSTEEMFVKWKLNKSYIFIYDGNKNSTTTDQNFTSAKISVSDLINGIASLKMDKRDAMVGNYTCEVTELSREGKTVIELKNRTVSWFSPNEKILIVIFPILAILLFWGKFGILTLKYKSSHTNKRIILLLVAGLVLTVIVVVGAILLIPGEKPVKNASGLGLIVISTGILILLQYNVFMTAFGMTSFTIAILITQVLGYVLALVGLCLCIMACEPVHGPLLISGLGIIALAELLGLVYMKFVASNQRTIQPPRNR
binding: binds

B4: transmembrane emp24 domain-containing protein 10 (Tmed10) (protein, UniProt Q9D1D4 32-219)
chain: ISFHLPVNSRKCLREEIHKDLLVTGAYEITDQSGGAGGLRTHLKITDSAGHILYAKEDATKGKFAFTTEDYDMFEVCFESKGTGRIPDQLVILDMKHGVEAKNYEEIAKVEKLKPLEVELRRLEDLSESIVNDFAYMKKREEEMRDTNESTNTRVLYFSIFSMFCLIGLATWQVFYLRRFFKAKKLIE
binding: binds

B5: transmembrane emp24 domain-containing protein 9 (Tmed9) (protein, UniProt Q99KF1 38-235)
chain: LYFHIGETEKKCFIEEIPDETMVIGNYRTQLYDKQREEYQPATPGLGMFVEVKDPEDKVILARQYGSEGRFTFTSHTPGEHQICLHSNSTKFSLFAGGMLRVHLDIQVGEHANDYAEIAAKDKLSELQLRVRQLVEQVEQIQKEQNYQRWREERFRQTSESTNQRVLWWSILQTLILVAIGVWQMRHLKSFFEAKKLV
binding: binds

B6: ZIP10 zinc transporter (Zip10) (protein, UniProt Q6P5F6 26-833)
chain: HEDHDHGPEELHRHHRGMTESESSKFSVQDAENEKKYYIEKLFDRYGENGRLSFFGLEKLLTNLGLGEIKVVEINHEDLGHDHVSHLDILAVQEGKHFHSHTHQHFHNHLNAENHTTTSVTSKRNHKCDPEKEAAELPIKADDKHLHDRNHRFHHRHRLHHHLDHNTTRHVHNDSVAHSEHGEPGHSPSPETNKTQEQSEVKSVKVRRKEKGKRKKENSEVNTPGFLPNHDHSEQYEHNRVHKLDRVHSPGHPHAHLPEHSGHELGHGHQELDPDNEGELRHTRKREAPHVRKSAIYSTPSHKDQSEDDRQHECLNVTQLLKHFGLGPNSPISPDLFTYLCPALLYQIDSRLCIEHFDKLLVEDLNKDKTLVPEDKTNIGASAWICGIISITVISLLSLLGVILVPIINQGCFKFLLTFLVALAVGTMSGDALLHLLPHSQGGHDHSHQHTHGHGHSHGHESKEFLEEYDAVLKGLVALGGIYLLFIIEHCIRMFKHYKQQRGKQKWFMKQSTEESTIGRKLSDHKLNSTPDADWLQLKPLAGTDDSVVSEDRLNETELTDLEAQQESPPKNYLGVEEEKIMDHSHSDGLHTIHEHEVHVTSHNHHDEDKAVLRKHSHQWHHRHAHHSHGPCHSGSDLKETGIANIAWMVIMGDGIHNFSDGLAIGAAFSAGLTGGISTSIAVFCHELPHELGDFAVLLKAGMTVKQAIVYNLLSAMMAYIGMLIGTAVGQYANNITLWIFAITAGMFLYVALVDMLPEMLHGDGDHEEHGFCPVGQFILQNLGLLFGFAIMLVIALYEDKIVFDIQF
binding: binds

B7: glypican-1 (Gpc1) (protein, UniProt Q9QZF2 24-529)
chain: DPASKSRSCSEVRQIYGAKGFSLSDVPQAEISGEHLRICPQGYTCCTSEMEENLANHSRMELESALHDSSRALQATLATQLHGIDDHFQRLLNDSERTLQEAFPGAFGDLYTQNTRAFRDLYAELRLYYRGANLHLEETLAEFWARLLERLFKQLHPQLLPDDYLDCLGKQAEALRPFGDAPRELRLRATRAFVAARSFVQGLGVASDVVRKVAQVPLAPECSRAIMKLVYCAHCRGVPGARPCPDYCRNVLKGCLANQADLDAEWRNLLDSMVLITDKFWGPSGAESVIGGVHVWLAEAINALQDNKDTLTAKVIQACGNPKVNPHGSGPEEKRRRGKLALQEKPSTGTLEKLVSEAKAQLRDIQDFWISLPGTLCSEKMAMSPASDDRCWNGISKGRYLPEVMGDGLANQINNPEVEVDITKPDMTIRQQIMQLKIMTNRLRGAYGGNDVDFQDASDDGSGSGSGGGCPDDTCGRRVSKKSSSSRTPLTHALPGLSEQEGQKTS
binding: binds
